Reference: patent US12171232B1, “N-[(4,6-dimethylpyrimidin-2-yl)carbamothioyl] pyridine-3-carboxamide as an eco-friendly insecticidal agent against Spodoptera littoralis (boisd.)” (KING FAISAL UNIVERSITY, priority 2023, dated 2024)

Tested on: Spodoptera littoralis
Assay: Insecticidal bioassay screening (castor leaf dip) on larvae of the laboratory strain of cotton leafworm
Assay type: in vivo
Conditions: after 72 hrs of treatment, slope of LDP line
Protocol: Five concentrations (200, 100, 50, 25, 12.5 ppm) were designed for this synthetic compound and the reference Diflubenzuron compound as the dynamic ingredients based on ppm via diluting the commercial formulation.
In this experiment, castor leaves are immersed in each of the previously prepared concentrations of the components for 10 seconds and then left to dry for 60 minutes. Larvae of the second and fourth instars of each checked strain are prepared with treated leaves in gauze-covered glass containers for 72 hrs. An untreated control is made in which leaves are dipped in triton x-100 and distilled water only. Then the preserved leaves were removed & fresh, untreated leaves were provided for 72 hours. Three replicates (10 larvae each) were checked for each concentration. Daily inspection was carried out for all treatments and mortality percentages were recorded 3 days (72 hours) after treatment. The average mortality percentage was corrected employing Abbott's formula. The corrected mortality rate for each of the previously synthesized compounds is statistically calculated according to Finney (1970). Through this rate, the corresponding concentration test lines (LDP lines) are assessed.

In the case of `Cc1cc(C)nc(NC(=S)NC(=O)c2cccnc2)n1` [Compound 2, N-[(4,6-Dimethylpyrimidin-2-yl)carbamothioyl]pyridine-3-carboxamide], the Slope (2nd instar larvae) is reported as 1.24 ± 0.36 and the Slope (4th instar larvae) is reported as 1.26 ± 0.36.
